Laboratory results from patent US9169492B2, “Compositions and methods for enhanced parvovirus transduction” (priority 2011, dated 2015).
For at least one compound, name, drawing or mass did not settle the structure.

System: C57B6 mice
Assay: In vivo bioluminescence imaging after AAV8.Luciferase with or without dexamethasone
Set-up: species or system mouse
Details: dexamethasone co-administered with reporter vector

`C[C@@H]1C[C@H]2[C@@H]3CCC4=CC(=O)C=C[C@]4(C)[C@@]3(F)[C@@H](O)C[C@]2(C)[C@@]1(O)C(=O)CO` [dexamethasone] was tested, and the ectopic vector scatter was “lower gene expression and genome persistence in several organs, including heart, spleen, and pancreas with a modest increase in hepatic delivery”.
